The results in this text go back to patent publication US7067145B2, “Use of arachidonic acid for enhanced culturing of fish larvae and broodstock” (University of Maryland Biotechnology Institute, priority 2000, dated 2006).

For data set [1], the system named is Artemia nauplii. Briefly: Enrichment of Artemia nauplii with DHA:AA diets, lipid and fatty acid composition. Format: in vivo.
Data set [2] concerns white bass larvae brain/eye, muscle and gill tissues. Kind of data set: Fatty acid composition of white bass larval tissues after dietary treatment. Format: in vivo, Morone chrysops.
For data set [3], the system named is striped bass larva gill tissue. Kind of data set: AA/EPA ratio in larval gill tissue lipids. Format: in vivo, Morone saxatilis.

`CCCCC/C=C\C/C=C\C/C=C\C/C=C\CCCC(=O)O` [AA, arachidonic acid]: the “AA retention by the Artemia” value in data set [1] (16 h enrichment) was 25.3 mg AA/g dry weight. For the same compound, in data set [1] (in the presence of increasing dietary levels of the competing fatty acid (AA vs DHA)), the “Reduction of maximal retention by Artemia” value turned out to be 25%. Also, the “DHA in larval brain/eye tissue” value in data set [2] (DHA-deficient diets, highest content of dietary AA) is on record as 7.5±1.2 mg DHA/g dry weight. In addition, the “Dietary content at maximum accumulation rate of AA in gills” value in data set [2] (in vivo) is “about 2 mg/g”. In addition, the “AA over EPA accumulated in gills (times)” value in data set [3] (Artemia enriched with 14.5 mg AA g^−1 lipids) is 4 times; in data set [3] (Artemia enriched with 24.8 mg AA g^−1 lipids) it was 6 times.
